Measured values: article PMC7614367, “Itraconazole inhibits endothelial cell migration by disrupting inositol pyrophosphate-dependent focal adhesion dynamics and cytoskeletal remodeling” (Biomedicine & Pharmacotherapy, 2023)
These are yes or no findings as the source states them, for the method shown. Binding seen in cells or lysates may run through a third protein. Some results given as binding are weak or reduced against the parent protein; the word gives no strength.

Sequences of proteins named here, by UniProt entry; tags and fusion partners are left off.
UniProt Q05397: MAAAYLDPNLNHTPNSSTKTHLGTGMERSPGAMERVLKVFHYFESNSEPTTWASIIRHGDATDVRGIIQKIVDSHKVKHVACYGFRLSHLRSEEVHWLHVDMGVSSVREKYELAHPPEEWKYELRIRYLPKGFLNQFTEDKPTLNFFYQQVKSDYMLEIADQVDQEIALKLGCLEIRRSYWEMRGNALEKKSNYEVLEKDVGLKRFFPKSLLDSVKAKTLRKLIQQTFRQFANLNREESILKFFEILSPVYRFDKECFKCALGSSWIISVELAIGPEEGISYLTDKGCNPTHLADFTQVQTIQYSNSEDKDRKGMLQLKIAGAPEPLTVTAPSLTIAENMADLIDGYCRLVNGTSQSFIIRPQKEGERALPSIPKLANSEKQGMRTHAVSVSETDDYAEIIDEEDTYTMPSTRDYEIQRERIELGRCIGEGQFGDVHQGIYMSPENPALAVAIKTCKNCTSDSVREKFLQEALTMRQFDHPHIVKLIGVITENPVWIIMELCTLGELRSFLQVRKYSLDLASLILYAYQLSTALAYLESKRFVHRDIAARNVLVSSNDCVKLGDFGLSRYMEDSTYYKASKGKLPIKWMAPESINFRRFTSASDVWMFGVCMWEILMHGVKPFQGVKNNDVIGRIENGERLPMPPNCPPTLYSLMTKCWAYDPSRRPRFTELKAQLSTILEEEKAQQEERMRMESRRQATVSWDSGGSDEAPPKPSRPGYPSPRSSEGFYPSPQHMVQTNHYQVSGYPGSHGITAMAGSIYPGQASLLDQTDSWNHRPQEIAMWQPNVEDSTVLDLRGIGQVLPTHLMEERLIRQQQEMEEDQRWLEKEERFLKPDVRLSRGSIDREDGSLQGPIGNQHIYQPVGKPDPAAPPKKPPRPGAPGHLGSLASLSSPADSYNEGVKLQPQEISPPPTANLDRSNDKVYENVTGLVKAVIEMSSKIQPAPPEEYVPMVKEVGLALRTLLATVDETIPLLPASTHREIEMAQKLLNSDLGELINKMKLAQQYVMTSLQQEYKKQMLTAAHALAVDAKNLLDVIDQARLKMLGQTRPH
UniProt P34152: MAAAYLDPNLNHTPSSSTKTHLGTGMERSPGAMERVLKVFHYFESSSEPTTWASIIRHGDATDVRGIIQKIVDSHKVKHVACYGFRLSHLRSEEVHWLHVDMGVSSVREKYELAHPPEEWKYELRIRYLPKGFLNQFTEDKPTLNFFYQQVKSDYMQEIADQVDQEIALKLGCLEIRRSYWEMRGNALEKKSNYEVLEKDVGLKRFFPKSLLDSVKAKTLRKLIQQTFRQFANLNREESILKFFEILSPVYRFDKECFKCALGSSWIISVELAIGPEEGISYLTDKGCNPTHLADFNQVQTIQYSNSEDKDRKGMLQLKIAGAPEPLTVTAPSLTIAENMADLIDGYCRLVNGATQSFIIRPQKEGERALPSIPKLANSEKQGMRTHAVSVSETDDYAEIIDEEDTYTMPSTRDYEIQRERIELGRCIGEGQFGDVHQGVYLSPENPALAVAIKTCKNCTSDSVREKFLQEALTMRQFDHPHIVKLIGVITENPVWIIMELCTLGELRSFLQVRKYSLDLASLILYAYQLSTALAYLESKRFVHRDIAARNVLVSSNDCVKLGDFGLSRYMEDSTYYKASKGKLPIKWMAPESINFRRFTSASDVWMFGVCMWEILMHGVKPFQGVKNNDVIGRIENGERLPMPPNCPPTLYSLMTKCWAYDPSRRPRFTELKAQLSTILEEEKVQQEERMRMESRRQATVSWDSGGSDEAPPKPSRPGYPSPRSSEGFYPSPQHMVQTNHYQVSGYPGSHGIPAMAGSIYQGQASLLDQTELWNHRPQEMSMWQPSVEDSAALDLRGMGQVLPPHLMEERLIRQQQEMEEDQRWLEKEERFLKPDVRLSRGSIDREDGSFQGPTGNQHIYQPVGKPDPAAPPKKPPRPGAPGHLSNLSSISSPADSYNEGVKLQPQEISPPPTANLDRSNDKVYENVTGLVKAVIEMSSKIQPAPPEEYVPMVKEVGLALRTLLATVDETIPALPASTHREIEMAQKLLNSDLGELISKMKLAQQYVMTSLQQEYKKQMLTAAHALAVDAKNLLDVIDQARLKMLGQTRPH

Target: GST-fused FAK (in MEF cells) (UniProt Q05397)
Assay: pull-down; GST-FAK overexpressed in WT and IP6K1 KO MEF cells and pulled down, endogenous FAK detected

binding: binds
Substance: endogenous FAK (MEF cells) (from UniProt P34152 1-1052) (enzyme)
